Assay results published in publication PMC9135408.
No constants are given. Whether binding was seen depends on the method and setting. Binding seen in cells or lysates may run through a third protein. A yes stands for co-enrichment or nearness to the bait. Other partners may have been found. For some assays here: Where a sequence is shown, tags or fusion partners need not be part of it.

How the values were obtained:
[1] = biological target: T1, FOXA1 (human (endogenous in LNCaP)) (UniProt P55317); test: affinity purification with mass spectrometry; RIME: LNCaP cells treated with enzalutamide; fixed in 1% formaldehyde 10 min, lysed at 4°C in RIPA buffer, sonicated; endogenous FOXA1 precipitated with two FOXA1 antibodies against distinct epitopes, Protein A magnetic beads; unique peptides by …
T1 sequence: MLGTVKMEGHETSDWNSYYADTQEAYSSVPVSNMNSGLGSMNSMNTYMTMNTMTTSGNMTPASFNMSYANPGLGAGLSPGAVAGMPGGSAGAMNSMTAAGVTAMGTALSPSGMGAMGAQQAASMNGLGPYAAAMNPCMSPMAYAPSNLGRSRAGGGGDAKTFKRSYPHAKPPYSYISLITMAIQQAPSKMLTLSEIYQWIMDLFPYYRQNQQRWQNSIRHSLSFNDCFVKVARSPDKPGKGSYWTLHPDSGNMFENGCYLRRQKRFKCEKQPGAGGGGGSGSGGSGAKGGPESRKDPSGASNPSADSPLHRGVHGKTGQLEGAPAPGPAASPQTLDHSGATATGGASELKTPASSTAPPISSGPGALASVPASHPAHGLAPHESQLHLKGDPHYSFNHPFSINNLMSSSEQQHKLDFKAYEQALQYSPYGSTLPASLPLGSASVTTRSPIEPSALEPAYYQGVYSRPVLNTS

[2] = biological target: V5-tagged CREB5 (cAMP-responsive element binding protein 5), wild type (human) (UniProt Q02930); test: affinity purification with mass spectrometry; RIME: LNCaP cells overexpressing the V5-tagged bait (CREB5, CREB5 L434P, CREB3 or luciferase), standard media or enzalutamide; 50 million cells fixed in 1% formaldehyde 10 min, lysed at 4°C in RIPA buffer, sonicated; V5 antibody overnight at 4°C, Protein A magnetic beads; proteins precipitated by the V5 antibody or luciferase subtracted; unique peptides by LC-MS/MS

B1: TBX3 (protein, UniProt O15119 1-743)
chain: MSLSMRDPVIPGTSMAYHPFLPHRAPDFAMSAVLGHQPPFFPALTLPPNGAAALSLPGALAKPIMDQLVGAAETGIPFSSLGPQAHLRPLKTMEPEEEVEDDPKVHLEAKELWDQFHKRGTEMVITKSGRRMFPPFKVRCSGLDKKAKYILLMDIIAADDCRYKFHNSRWMVAGKADPEMPKRMYIHPDSPATGEQWMSKVVTFHKLKLTNNISDKHGFTLAFPSDHATWQGNYSFGTQTILNSMHKYQPRFHIVRANDILKLPYSTFRTYLFPETEFIAVTAYQNDKITQLKIDNNPFAKGFRDTGNGRREKRKQLTLQSMRVFDERHKKENGTSDESSSEQAAFNCFAQASSPAASTVGTSNLKDLCPSEGESDAEAESKEEHGPEACDAAKISTTTSEEPCRDKGSPAVKAHLFAAERPRDSGRLDKASPDSRHSPATISSSTRGLGAEERRSPVREGTAPAKVEEARALPGKEAFAPLTVQTDAAAAHLAQGPLPGLGFAPGLAGQQFFNGHPLFLHPSQFAMGGAFSSMAAAGMGPLLATVSGASTGVSGLDSTAMASAAAAQGLSGASAATLPFHLQQHVLASQGLAMSPFGSLFPYPYTYMAAAAAASSAAASSSVHRHPFLNLNTMRPRLRYSPYSIPVPVPDGSSLLTTALPSMAAAAGPLDGKVAALAASPASVAVDSGSELNSRSSTLSSSSMSLSPKLCAEKEAATSELQSIQRLVSGLEAKPDRSRSASP
binding [1]: binds
binding [2]: binds
